Results on two molecules are retold here after US20050214798A1 (WISTAR INSTITUTE OF ANATOMY AND BIOLOGY, published 2005).

Results are given in words; binding and its absence hold for the method and conditions named. Binding seen in cells or lysates may run through a third protein. Some entries that bind do so weakly or less than the wild type.

In assay [1] the target is T1, Bin2 (Bridging INtegrator-2) (human, UniProt Q9UBW5 1-565).
T1 construct: In vitro translated in the presence of 35S-methionine from the full-length cDNA
T1 sequence: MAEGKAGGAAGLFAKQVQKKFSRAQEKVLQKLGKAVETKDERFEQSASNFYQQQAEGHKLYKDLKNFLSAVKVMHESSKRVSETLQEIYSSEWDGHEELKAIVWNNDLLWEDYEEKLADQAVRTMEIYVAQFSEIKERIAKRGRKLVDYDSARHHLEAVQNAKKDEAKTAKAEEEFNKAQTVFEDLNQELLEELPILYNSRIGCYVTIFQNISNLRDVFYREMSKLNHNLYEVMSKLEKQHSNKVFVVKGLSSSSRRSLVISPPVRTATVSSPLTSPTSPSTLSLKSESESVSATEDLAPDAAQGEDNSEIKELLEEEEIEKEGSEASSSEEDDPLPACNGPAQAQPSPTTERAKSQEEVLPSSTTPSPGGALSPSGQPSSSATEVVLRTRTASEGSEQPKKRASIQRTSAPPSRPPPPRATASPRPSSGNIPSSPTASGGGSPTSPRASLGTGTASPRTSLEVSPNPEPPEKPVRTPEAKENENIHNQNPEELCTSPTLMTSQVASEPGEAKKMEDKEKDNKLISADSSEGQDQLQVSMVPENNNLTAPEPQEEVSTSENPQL
As to the kind of experiment: co-immunoprecipitation of in vitro translated proteins.

In assay [2] the target is T1, Bin2 (Bridging INtegrator-2). Briefly: co-immunoprecipitation with anti-Bin1 antibody 99D of 35S-labelled cotranslated proteins, SDS-PAGE and fluorography.
Assay [3] has the same target. As to the kind of experiment: co-immunoprecipitation of in vitro translated proteins, deletion mutant. An excerpt:
Stable complexes have been reported in yeast between RVS161 and RVS167 and in brain between amphiphysin and brain-specific splice isoforms of Bin1 [Navarro et al., Biochim. Biophys. Acta, 1343: 187-192 (1997); Wigge et al., Mol. Biol. Cell 8: 2003-2015 (1997)]. Since Bin1 is expressed in hematopoietic cells, whether Bin2 and Bin1 could also form a stable biochemical complex was investigated. For coimmunoprecipitation experiments, Bin1 was in vitro translated in the presence or absence of Bin2 and complex formation was assessed by SDS-PAGE and fluorography after immunoprecipitation with the Bin1 monoclonal antibody 99D [Wechsler-Reya et al., Cancer Res. 57: 3258-3263 (1997)].
Other deletion mutants of Bin1 lacking the so-called Unique central region, the Myc-binding domain, or the SH3 domain, interacted with Bin2 with the same efficiency as wild-type Bin1 (data not shown). It was concluded that Bin1 and Bin2 formed a BAR domain-dependent complex in cells.

B1: Bin1 (Bridging INtegrator-1) (protein)
chain: AEMGSKGVTAGKIASNVQKKLTRAQEKVLQKLGKADETKDEQFEQCVQNFNKQLTEGTRLQKDLRTYLASVKAMHEASKKLNECLQEVYEPDWPGRDEANKIAENNDLLWMDYHQKLVDQALLTMDTYLGQFPDIKSRIAKRGRKLVDYDSARHHYESLQTAKKKDEAKIAKAEEELIKAQKVFEEMNVDLQEELPSLWNSRVGFYVNTFQSIAGLEENFHKEMSKLNQNLNDVLVGLEKQHGSNTFTVKA
As for B1, the binding result in assay [1] and in assay [2] was “binds” in each case.

B2: Bin1 deletion mutant Δ143-148 (protein)
chain: MAEMGSKGVTAGKIASNVQKKLTRAQEKVLQKLGKADETKDEQFEQCVQNFNKQLTEGTRLQKDLRTYLASVKAMHEASKKLNECLQEVYEPDWPGRDEANKIAENNDLLWMDYHQKLVDQALLTMDTYLGQFPDIKSRIAKDYDSARHHYESLQTAKKKDEAKIAKAEEELIKAQKVFEEMNVDLQEELPSLWNSRVGFYVNTFQSIAGLEENFHKEMSKLNQNLNDVLVGLEKQHGSNTFTVKA
Consider B2, for which the binding result in assay [3] is reported as “binds”.
